The source of these data is patent US20040191820, “Protection-of telomere-1 (POT-1) protein and encoding polynucleotides” (The Regents of the University of Colorado, published 2004).

Chains of the proteins cited; added tags and fusions are not shown. A line that says so, or that is headed by a name, gives the form on record, which may keep a tag or linker.
SpPot1p N-terminal 22 kDa fragment (truncated Pot1p) (Schizosaccharomyces pombe), one chain, as listed by the source: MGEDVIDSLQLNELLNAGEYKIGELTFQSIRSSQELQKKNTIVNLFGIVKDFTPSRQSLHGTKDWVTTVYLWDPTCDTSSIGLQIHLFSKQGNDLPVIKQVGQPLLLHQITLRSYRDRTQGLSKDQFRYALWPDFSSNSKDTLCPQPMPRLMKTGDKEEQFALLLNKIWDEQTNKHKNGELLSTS

For at least one entry, the source does not settle the construct or the ends of the probe.

The series concerns SpPot1p N-terminal 22 kDa fragment (truncated Pot1p) (Schizosaccharomyces pombe). As to the kind of experiment: EMSA. The settings on record: mixture with full length; truncated Pot1p-DNA complex seen; purified recombinant protein; label: 5' 32P; single-stranded DNA.

Take “GGTTACACGGTTACAGGTTACAGGTTACAGGGTTACGGTTACG [S. pombe G-strand (PBoli112)]”: the binding result was “binds”.
